Results deposited as PubChem BioAssay AID504774 (Drosophila RNAi Screening Center, 2011)

Test: 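Knock-downs that shift viability of MMS-exposed cells relative to untreated ones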 (primary screen)
System: Drosophila Kc167 cells
Reagents: long dsRNA against Drosophila genes, about 0.25 µg dsRNA per well
Time to read-out: about 6 days: 3 days knock-down, then 3 days with or without MMS
Challenge: methyl methanesulphonate 0.004% (w/v) for 3 days after knock-down
Measured: 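Viability in wells given MMS, read as ATP luminescence, normalised by quantiles plate by plate and averaged across replicates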
Direction: mean viability with MMS and viability with MMS: higher = more surviving cells after MMS
The deposit covers about 23,000 reagents; below is a random part of those with a known target gene and a result. 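Values are quantile-normalised luminescence on an arbitrary scale; higher means more cells surviving MMS.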 The numbers tell different reagents against one gene apart. Names joined by + are all predicted targets of the reagent.

no.	gene knocked down	reagent	mean viability with MMS	viability with MMS, replicate 1	viability with MMS, replicate 2
1	Sox21a	1	3.52e6	3.94e6	4.03e6
2	CG12637	1	3.56e6	4.07e6	4.00e6
3	RPA2	1	3.56e6	4.17e6	3.88e6
4	CG9896	1	3.54e6	3.96e6	4.06e6
5	CG9896	2	3.58e6	4.11e6	4.02e6
6	sktl	1	3.45e6	3.73e6	4.00e6
7	Cyp6a23	1	3.68e6	4.06e6	3.98e6
8	RpS26	1	2.76e6	3.50e6	3.50e6
9	CG30427	1	3.62e6	4.11e6	4.11e6
10	CG30427	2	3.54e6	4.01e6	3.89e6
11	CG30427	3	3.11e6	3.46e6	3.57e6
12	gd	1	3.44e6	3.91e6	3.88e6
13	Ugt37E1	1	3.63e6	4.04e6	4.16e6
14	CG5882	1	3.60e6	4.17e6	4.00e6
15	CG15170	1	3.61e6	4.13e6	4.05e6
16	CG10026	1	3.62e6	4.06e6	4.16e6
17	CG10147	1	3.54e6	4.10e6	3.94e6
18	CG5225	1	3.78e6	4.23e6	4.32e6
19	Rac2	1	3.63e6	4.10e6	4.16e6
20	CG8564	1	3.59e6	4.00e6	4.15e6
21	CG1999	1	3.47e6	4.01e6	3.91e6
22	SMC5	1	3.48e6	3.95e6	3.93e6
23	CG15571	1	3.66e6	4.25e6	4.06e6
24	Swim	1	3.54e6	4.06e6	3.91e6
25	dsb	1	3.24e6	3.67e6	3.69e6
26	dsb	2	3.57e6	4.00e6	4.08e6
27	asp	1	3.60e6	4.05e6	4.10e6
28	CG11811	1	3.54e6	4.09e6	3.92e6
29	CG2909	1	3.46e6	3.93e6	3.89e6
30	CG17683	1	3.31e6	3.81e6	3.75e6
31	Vps60	1	3.65e6	4.20e6	4.05e6
32	ATbp	1	3.36e6	3.80e6	3.82e6
33	Cenp-C	1	3.21e6	3.74e6	3.70e6
34	CG7382	1	3.35e6	3.63e6	3.84e6
35	CG30154	1	3.49e6	3.96e6	3.97e6
36	CG34450	1	3.68e6	4.19e6	3.96e6
37	bcd + CR14578	1	3.54e6	4.06e6	3.98e6
38	Cyp12b2	1	3.53e6	4.06e6	3.93e6
39	ddbt	1	3.88e6	4.48e6	4.17e6
40	ProtA	1	3.58e6	4.13e6	4.00e6
41	eIF4E4	1	3.36e6	3.81e6	3.74e6
42	CG18249	1	3.61e6	4.15e6	4.07e6

Records above whose gene name begins with D or d:
gene knocked down	reagent	mean viability with MMS	viability with MMS, replicate 1	viability with MMS, replicate 2
dsb	1	3.24e6	3.67e6	3.69e6
dsb	2	3.57e6	4.00e6	4.08e6
ddbt	1	3.88e6	4.48e6	4.17e6

Additional entries:
no.	gene knocked down	reagent	mean viability with MMS	viability with MMS, replicate 1	viability with MMS, replicate 2
43	CG10053	1	3.54e6	3.97e6	4.05e6
44	DUBAI	1	3.51e6	4.00e6	3.94e6
45	mthl11	1	3.42e6	3.96e6	3.81e6
46	Tfb1	1	3.17e6	3.69e6	3.64e6
47	kri	1	3.67e6	4.09e6	4.23e6
48	MP1	1	3.68e6	4.18e6	4.12e6
49	vex	1	3.65e6	4.02e6	4.24e6
50	vex	2	3.69e6	4.11e6	4.20e6
51	vex	3	3.51e6	4.11e6	3.85e6
52	CG11247	1	3.81e6	4.18e6	4.32e6
53	CG11247	2	3.59e6	4.12e6	3.99e6
54	CG34230	1	3.56e6	4.05e6	3.99e6
55	krz	1	3.59e6	4.04e6	4.10e6
56	CG42537	1	3.69e6	4.07e6	4.25e6
57	TrpA1	1	3.47e6	3.91e6	3.96e6
58	hfw	1	3.43e6	3.92e6	3.87e6
59	Dpck	1	3.54e6	4.04e6	3.99e6
60	Noc1	1	3.71e6	4.23e6	4.19e6
61	CG13123	1	3.39e6	3.66e6	3.98e6
62	CG13308	1	3.59e6	4.06e6	4.09e6
63	CG10431	1	3.65e6	4.09e6	4.18e6
64	CG1233	1	3.33e6	3.78e6	3.81e6
65	mdlc	1	3.39e6	3.85e6	3.83e6
66	CG17633	1	3.55e6	4.02e6	4.06e6
67	ApepP	1	3.25e6	3.81e6	3.51e6
68	Lpin	1	3.80e6	4.42e6	4.17e6
